Assay results as given in the supplement of paper PMC6289059.
Counter-ions that a name gives are not always drawn. The list shows a part of the results. Single values are uncertain, as repeats are few or missing.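 The cells are hepatocyte-like cells grown from human stem cells in which the DGUOK gene was disrupted by CRISPR, a model of liver mtDNA depletion syndrome. Each well's ATP signal was scored against the other wells on its plate, and a drug counted as a primary hit when its score was 3 or higher.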 Residues, ends and D or L forms follow the SMILES beside them.

What follows are compounds tested on DGUOK Δ14/Δ5 iPSC-derived hepatocyte-like cells (SV20) (assay: ATP level (CellTiter-Glo luminescence) Z score relative to plate distribution, under 2-DG glycolysis block; higher = more cellular ATP (rescue of mitochondrial ATP production)). Conditions: 5 µM; treatment time: day 15 to day 20 of differentiation (5 days); 2-deoxy-D-glucose: 20 mM for 24 h before assay.
For `Cc1cc(C)nc(NS(=O)(=O)c2ccc(N)cc2)n1`, the ATP level was inactive: -11.1.
For `CCOC(=O)Nc1nc2ccccc2[nH]1`, the ATP level was inactive: -0.804.
For `COc1ccc(-c2oc3cc(OC)c(OC)c(OC)c3c(=O)c2OC)cc1OC`, the ATP level was inactive: 1.29.
In the case of `NC[C@H]1O[C@H](O[C@H]2[C@H](O)[C@@H](O[C@H]3O[C@H](CO)[C@@H](O)[C@H](N)[C@H]3O)[C@H](N)C[C@@H]2N)[C@H](N)C[C@@H]1O`, the ATP level was inactive: 0.197.
In the case of `Cc1c(N)c(=O)n(-c2ccccc2)n1C`, the ATP level was inactive: -0.635.
With `CC1C(=O)OC2C1CCC1(C)CCC(=O)C(C)C21` (stereo unspecified) the ATP level was inactive: -0.85.
For `O=C(O)c1ccc[n+]([O-])c1`, the ATP level was inactive: 0.48.
With `CC(C)(CO)[C@@H](O)C(=O)NCCC(=O)O` [PANTOTHENIC ACID(d) Na salt] the ATP level was inactive: -2.44.
`CCN(CCCCOC(=O)c1ccc(OC)c(OC)c1)C(C)Cc1ccc(OC)cc1` (stereo unspecified) was tested, and the ATP level was inactive: -0.302.
`Cc1cc(C(C)(C)C)cc(C)c1CC1=NCCN1` was tested, and the ATP level was inactive: 0.35.
With `CCN(CC)C(=O)C1(c2ccccc2)CC1CN` (stereo unspecified) the ATP level was inactive: 1.74.
For `CC#CCn1c(N2CCC[C@@H](N)C2)nc2c1c(=O)n(Cc1nc(C)c3ccccc3n1)c(=O)n2C`, the ATP level was inactive: 1.16.
With `CCN(CC)CCOCCOC(=O)C1(c2ccccc2)CCCC1` the ATP level was inactive: -0.396.
For `Cc1cc(O)c2c(c1O)C(=O)c1c(O)cc(C)c(O)c1C2=O`, the ATP level was inactive: 0.375.
In the case of `COc1cc(OC)c2ccc(=O)oc2c1`, the ATP level was inactive: -0.273.
For `N[C@H]1CONC1=O`, the ATP level was inactive: 2.47.
For `CCCCC1C(=O)N(c2ccccc2)N(c2ccc(O)cc2)C1=O` (stereo unspecified), the ATP level was inactive: 1.55.
In the case of `O=C(CCBr)N1CCN(C(=O)CCBr)CC1`, the ATP level was inactive: -2.33.
For `O=c1c(O)c(-c2ccc(O)cc2)oc2cc(O)cc(O)c12`, the ATP level was inactive: 1.18.
With `O=C(O)c1cc(=O)c(O)c2c(O)c(O)c(O)cc2c1` the ATP level was inactive: 0.583.
With `CC(=O)Nc1ccc(OC(=O)c2ccccc2O)cc1` the ATP level was inactive: -5.96.
With `COc1cc2nc(N3CCN(C(=O)C4COc5ccccc5O4)CC3)nc(N)c2cc1OC` (stereo unspecified) the ATP level was inactive: 2.17.
`COC(=O)C[C@H]1C2(C)CC34OC5(C)O[C@@]6([C@H](OC(C)=O)C(OC(C)=O)[C@]7(C)C(/C(=C(/O)C(C)C)C(=O)O[C@H]7c7ccoc7)[C@@]6(O5)[C@H](OC(C)=O)[C@@]3(O)C2OC(=O)C(C)C)[C@]14C` (stereo partly specified) was tested, and the ATP level was inactive: 0.566.
With `COC(=O)C1=CO[C@@H](O[C@@H]2O[C@H](CO)[C@@H](O)[C@H](O)[C@H]2O)[C@H]2[C@@H]1C(=O)C[C@@H]2C` the ATP level was inactive: 2.22.
In the case of `N=C(N)SCCN`, the ATP level was inactive: -4.88.
With `CCCCC1C(=O)N(c2ccccc2)N(c2ccccc2)C1=O` the ATP level was inactive: 1.12.
In the case of `O=C(O)/C=C/C=C/c1ccccc1`, the ATP level was inactive: -0.397.
For `C#C[C@]1(OC(C)=O)CC[C@H]2[C@@H]3CCC4=CC(=O)CC[C@@H]4[C@H]3CC[C@@]21C`, the ATP level was inactive: 0.728.
With `CCCCOC(=O)c1ccc(O)cc1` the ATP level was inactive: 1.21.
With `COCCCOc1cc(C[C@@H](C[C@H](N)[C@@H](O)C[C@H](C(=O)NCC(C)(C)C(N)=O)C(C)C)C(C)C)ccc1OC` the ATP level was inactive: 1.58.
`CCCc1nc2c(C)cc(-c3nc4ccccc4n3C)cc2n1Cc1ccc(-c2ccccc2C(=O)O)cc1` was tested, and the ATP level was active: 3.08.
With `CC(=O)/N=c1/sc(S(N)(=O)=O)nn1C` the ATP level was active: 3.51.
With `CC1=CC(=O)c2ccccc2C1=O` the ATP level was inactive: 0.182.
For `N=C(N)N1CCc2ccccc2C1`, the ATP level was inactive: 2.81.
In the case of `COc1ccc(-c2cc(=O)c3c(O)c(OC)c(OC)c(OC)c3o2)cc1OC`, the ATP level was inactive: 0.477.
For `COc1cc(C(C)=O)cc(OC)c1O`, the ATP level was inactive: 1.63.
With `COCCCOc1ccnc(C[S+]([O-])c2nc3ccccc3[nH]2)c1C` (stereo unspecified) the ATP level was inactive: -1.68.
In the case of `CC(C)=CCC/C(C)=C\CO`, the ATP level was inactive: -1.09.
`O=C(O)Cc1cc(I)c(Oc2ccc(O)c(I)c2)c(I)c1` was tested, and the ATP level was active: 3.68.
With `CNCC[C@@H](Oc1ccccc1C)c1ccccc1` the ATP level was inactive: 1.21.
With `COc1cc2c(cc1OC)Cc1cc(OC)c(OC)cc1Cc1cc(OC)c(OC)cc1C2` the ATP level was inactive: 0.998.
In the case of `N[C@@H](CC(=O)N1CCn2c(nnc2C(F)(F)F)C1)Cc1cc(F)c(F)cc1F`, the ATP level was inactive: 0.809.
In the case of `C[C@@H]1O[C@@H](O[C@H]2[C@H](Oc3cc(O)c4c(c3)O[C@H](c3ccc(O)cc3)CC4=O)O[C@H](CO)[C@@H](O)[C@@H]2O)[C@H](O)[C@H](O)[C@H]1O`, the ATP level was active: 3.01.
`C=COCC(F)(F)F` was tested, and the ATP level was inactive: 2.38.
With `CC(=O)OCC(=O)[C@@]12OC3(CCCC3)O[C@@H]1C[C@H]1[C@@H]3CCC4=CC(=O)C=C[C@]4(C)[C@@]3(F)[C@@H](O)C[C@@]12C` the ATP level was inactive: 2.12.
With `C[C@@H]1O[C@@H](OC[C@H]2O[C@@H](Oc3c(-c4ccc(O)c(O)c4)oc4cc(O)cc(O)c4c3=O)[C@H](O)[C@@H](O)[C@@H]2O)[C@H](O)[C@H](O)[C@H]1O` the ATP level was inactive: 1.76.
`CO/N=C(\C(=O)N[C@@H]1C(=O)N2C(C(=O)O)=C(CSC(=O)c3ccco3)CS[C@H]12)c1csc(N)n1` was tested, and the ATP level was active: 3.5.
`N=C(N)c1ccc(N=NNc2ccc(C(=N)N)cc2)cc1` was tested, and the ATP level was inactive: -11.8.
For `C[C@H](CCC(=O)O)[C@H]1CC[C@H]2[C@@H]3C[C@H](O)[C@@H]4C[C@H](O)CC[C@]4(C)[C@H]3CC[C@]12C` [alpha-HYDROXYDEOXYCHOLIC ACID], the ATP level was inactive: 1.02.
`O=C(Nc1ccccc1)OCC(CN1CCCCC1)OC(=O)Nc1ccccc1` (stereo unspecified) was tested, and the ATP level was inactive: -5.04.
With `COc1c(O)cc(O)cc1O` the ATP level was inactive: 1.73.
In the case of `CC[C@@]1(O)C(=O)OCc2c1cc1n(c2=O)Cc2cc3c(CN(C)C)c(O)ccc3nc2-1`, the ATP level was active: 3.77.
For `Nc1nnc(-c2cccc(Cl)c2Cl)c(N)n1`, the ATP level was inactive: 0.786.
In the case of `O=C(O)/C=C(\CC(=O)O)C(=O)O`, the ATP level was inactive: 0.836.
For `Nc1nc(=O)[nH]cc1F`, the ATP level was inactive: 0.723.
In the case of `Cc1c(C)c2c(c(C)c1O)CCC(C)(CCCC(C)CCCC(C)CCCC(C)C)O2` (stereo not drawn) [alpha-TOCHOPHEROL [4 mM]], the ATP level was inactive: 1.01.
With `CC(=O)O[C@]1(C(C)=O)CC[C@H]2[C@@H]3C=C(C)C4=CC(=O)CC[C@]4(C)[C@H]3CC[C@@]21C` the ATP level was inactive: -10.1.
With `NC[C@H]1O[C@H](O[C@H]2[C@H](O)[C@@H](O[C@H]3O[C@H](CO)[C@@H](O)[C@H](N)[C@H]3O)[C@H](N)C[C@@H]2N)[C@H](N)[C@@H](O)[C@@H]1O` the ATP level was inactive: 1.67.
With `COc1cc(O)c(C(=O)c2ccccc2)cc1O` the ATP level was active: 4.51.
For `NC(=O)CC[C@H](NC(=O)[C@@H](N)CO)C(=O)O` (H-Ser-Gln-OH), the ATP level was inactive: -0.226.
`C#CC1(O)CC[C@H]2[C@@H]3CCC4=CC(=O)CC[C@@H]4[C@H]3CC[C@@]21CC` (stereo partly specified) was tested, and the ATP level was inactive: 0.43.
For `O=c1oc2ccccc2cc1O`, the ATP level was inactive: -0.257.
For `OCC(O)C(O)C(O)CO` (stereo unspecified), the ATP level was inactive: 0.679.
With `CC1CCC2(OC1)OC1CC3C4CCC5C[C@@H](O)CCC5(C)C4=CCC3(C)C1[C@@H]2C` (stereo partly drawn) [3beta-HYDROXYISOALLOSPIROST-9(11)-ENE] the ATP level was inactive: -1.34.
In the case of `CC(C)(C)NCC(O)COc1cccc2c1CC(O)C(O)C2` (stereo unspecified), the ATP level was active: 5.97.
With `CN(C)CC(=O)OC[C@@H](O)[C@@H](O)[C@H](O)[C@@H](O)C(=O)O` the ATP level was inactive: 1.24.
For `Cc1cc(O)cc(O)c1C(=O)O`, the ATP level was inactive: -2.94.
In the case of `CC[C@H](C)C(=O)O[C@H]1C[C@H](O)C=C2C=C[C@H](C)[C@H](CC[C@@H](O)C[C@@H](O)CC(=O)O)[C@H]21`, the ATP level was inactive: 2.14.
For `CC1=C(C(=O)O)N2C(=O)[C@@H](NC(=O)[C@H](N)c3ccccc3)[C@H]2SC1`, the ATP level was inactive: 1.18.
For `O=C1C(O)=C(O)C(=O)C(O)=C1O`, the ATP level was inactive: -3.95.
For `Cc1nccn1CC1CCc2c(c3ccccc3n2C)C1=O` (stereo unspecified), the ATP level was inactive: -0.654.
`NC(=O)c1cc[n+](CC2=C(C(=O)[O-])N3C(=O)[C@@H](NC(=O)Cc4cccs4)[C@H]3SC2)cc1` was tested, and the ATP level was inactive: -0.841.
`CC(=O)NC[C@H]1CN(c2ccc(N3CCOCC3)c(F)c2)C(=O)O1` was tested, and the ATP level was inactive: -4.56.
In the case of `COc1ccc2c(c1)c(CC(=O)OCC(=O)O)c(C)n2C(=O)c1ccc(Cl)cc1`, the ATP level was inactive: 2.47.
With `COc1ccc2cc3[n+](cc2c1OC)CCc1cc2c(cc1-3)OCO2` the ATP level was inactive: -9.11.
With `COc1ccc2c(c1)OC[C@@H](Cc1ccc(OC)c(OC)c1)[C@@H]2O` the ATP level was inactive: -0.292.
In the case of `O=C(c1cccnc1)N1CCOCC1`, the ATP level was inactive: 1.01.
For `OCC(S)CS` (stereo unspecified), the ATP level was inactive: -10.
In the case of `CC(C)=CC1C(C(=O)O)C1(C)C` (stereo unspecified), the ATP level was inactive: 1.99.
For `COC(=O)C[C@H]1C(C)(C)C(=O)[C@@H]2CC3C4=CC(=O)O[C@@H](c5ccoc5)[C@]4(C)CC[C@@H]3[C@@]1(C)C2=O` (stereo partly specified), the ATP level was inactive: -2.7.
In the case of `CC(C)Cn1c(=O)n(C)c(=O)c2nc[nH]c21`, the ATP level was inactive: 0.658.
In the case of `O=C1N=C(O)NC1(c1ccccc1)c1ccccc1`, the ATP level was inactive: 1.45.
`CC1(C)O[C@@H]2[C@@H](CO[C@@]3(COS(N)(=O)=O)OC(C)(C)O[C@@H]23)O1` was tested, and the ATP level was inactive: -1.49.
With `COc1cc(NS(=O)(=O)c2ccc(N)cc2)nc(OC)n1` the ATP level was inactive: 1.69.
With `CC[N+](CC)(CC(=O)Nc1c(C)cccc1C)Cc1ccccc1` the ATP level was active: 5.63.
`CC(=O)O[C@@H]1CC[C@@]2(C)C(C[C@@H](OC(C)=O)[C@@]3(C)C4=CC(=O)O[C@@H](c5ccoc5)[C@]4(C)CCC23)C1(C)C` (stereo partly drawn) [3alpha-ACETOXYDIHYDRODEOXYGEDUNIN] was tested, and the ATP level was inactive: 2.37.
